Test results: paper PMC5628579, “Potent mechanism-based sirtuin-2-selective inhibition by an in situ-generated occupant of the substrate-binding site, “selectivity pocket” and NAD^+-binding site” (Chemical Science, 2017)

Experiment: Interference with the Fluor de Lys Developer II reaction (deacetylated standard)
Conditions: for Developer II Activity (deacetylated standard 5 μM): compound 10 μM, control 552537

SMILES | Developer II Activity (deacetylated standard 5 μM) [AFU] | inhibition of the developer reaction of the SIRT2 assay
Cc1cc(C)nc(SCC(=O)Nc2ncc(Cc3cccc4ccccc34)s2)n1 [Compound 5, SirReal2, reference compound] | 563876 | –
NC(=O)c1ccccc1Nc1cccc(OCCc2ccccc2)c1 [Compound 6, 3′-phenethyloxy-2-anilinobenzamide, reference compound] | 540425 | –
C[C@H](NC(=O)[C@H](CCCCNC(=O)CNC(=O)c1ccccc1Nc1cccc(OCCc2ccccc2)c1)NC(=O)OCc1ccccc1)C(N)=O [Compound 26] | 548908 | –
C[C@H](NC(=O)[C@H](CCCCNC(=S)CNC(=O)c1ccccc1Nc1cccc(OCCc2ccccc2)c1)NC(=O)OCc1ccccc1)C(N)=O [Compound 36] | 550218 | did not inhibit the developer reaction
